6 compounds from paper PMC9385671 (Nature Communications, 2022) can be followed below.

No dose or concentration is given here for some results.

This series deals with E. coli cells. In words: FRAP of FtsZ architectures in live E. coli. It is filed as cell-based.

In the case of `N[C@@H](Cc1cc(Br)c(O)c(Br)c1)C(=O)O` [Br2Y, 3,5-dibromo-L-tyrosine], the “FRAP normalized fluorescence intensity, ave” value is listed as 1 (time 0 s (before bleaching)); 0 (time 4 s); 0.06572 (time 7 s); 0.1143 (time 10 s); 0.1802 (time 13 s); 0.197 (time 16 s). Moreover, the “FRAP normalized fluorescence intensity, ave” value is, setting by setting: (time 19 s) 0.2826; (time 22 s) 0.3492; (time 25 s) 0.3242; (time 28 s) 0.3861; (time 31 s) 0.3679; (time 41 s) 0.4294. In addition, the “FRAP normalized fluorescence intensity, ave” value runs as follows: (time 51 s) 0.4355; (time 61 s) 0.4333.

On to `N[C@@H](Cc1ccc(O)c(Br)c1)C(=O)O` [BrY, 3-bromo-L-tyrosine], for which the “FRAP normalized fluorescence intensity, ave” value runs as follows: (time 0 s (before bleaching)) 1; (time 4 s) 0; (time 7 s) 0.08518; (time 10 s) 0.09731; (time 13 s) 0.1281; (time 16 s) 0.2506. The “FRAP normalized fluorescence intensity, ave” value reads like this: (time 19 s) 0.3351; (time 22 s) 0.3159; (time 25 s) 0.3109; (time 28 s) 0.3745; (time 31 s) 0.3355; (time 41 s) 0.4046. The “FRAP normalized fluorescence intensity, ave” value (time 51 s) was found to be 0.4944 and the “FRAP normalized fluorescence intensity, ave” value (time 61 s) is 0.3299.

As to `N[C@@H](Cc1cc(Cl)c(O)c(Cl)c1)C(=O)O` [Cl2Y, 3,5-dichloro-L-tyrosine], the “FRAP normalized fluorescence intensity, ave” value is, setting by setting: (time 0 s (before bleaching)) 1; (time 4 s) 0; (time 7 s) 0.02882; (time 10 s) 0.1152; (time 13 s) 0.1881; (time 16 s) 0.2426. The “FRAP normalized fluorescence intensity, ave” value amounted to 0.297 (time 19 s); 0.2634 (time 22 s); 0.3509 (time 25 s); 0.2997 (time 28 s); 0.2987 (time 31 s); 0.4133 (time 41 s). Besides, the “FRAP normalized fluorescence intensity, ave” value is, setting by setting: (time 51 s) 0.3766; (time 61 s) 0.3279.

Take `N[C@@H](Cc1cc(I)c(O)c(I)c1)C(=O)O` [I2Y, 3,5-diiodo-L-tyrosine]: the “FRAP normalized fluorescence intensity, ave” value reads like this: (time 0 s (before bleaching)) 1; (time 4 s) 0; (time 7 s) 0.1002; (time 10 s) 0.1692; (time 13 s) 0.2385; (time 16 s) 0.2802. Moreover, the “FRAP normalized fluorescence intensity, ave” value stood at 0.3436 (time 19 s); 0.3275 (time 22 s); 0.3842 (time 25 s); 0.3331 (time 28 s); 0.3166 (time 31 s); 0.3667 (time 41 s). Moreover, the “FRAP normalized fluorescence intensity, ave” value by setting is: (time 51 s) 0.3665; (time 61 s) 0.4045.

As to `N[C@@H](Cc1ccc(O)c(Cl)c1)C(=O)O` [ClY, 3-chloro-L-tyrosine], the “FRAP normalized fluorescence intensity, ave” value came to 1 (time 0 s (before bleaching)); 0.00922 (time 4 s); 0.1022 (time 7 s); 0.2039 (time 10 s); 0.1824 (time 13 s); 0.3058 (time 16 s). Moreover, the “FRAP normalized fluorescence intensity, ave” value (time 19 s) is 0.222; the “FRAP normalized fluorescence intensity, ave” value (time 22 s) is 0.3336; the “FRAP normalized fluorescence intensity, ave” value (time 25 s) is recorded as 0.3274; the “FRAP normalized fluorescence intensity, ave” value (time 28 s) is 0.2994; the “FRAP normalized fluorescence intensity, ave” value (time 31 s) was determined as 0.3481; the “FRAP normalized fluorescence intensity, ave” value (time 41 s) is 0.3157. Moreover, the “FRAP normalized fluorescence intensity, ave” value is, setting by setting: (time 51 s) 0.3823; (time 61 s) 0.4263.

Consider `N[C@@H](Cc1ccc(O)c(I)c1)C(=O)O` [IY, 3-iodo-L-tyrosine], for which the “FRAP normalized fluorescence intensity, ave” value was found to be 1 (time 0 s (before bleaching)); 0 (time 4 s); 0.05475 (time 7 s); 0.06598 (time 10 s); 0.1061 (time 13 s); 0.1239 (time 16 s). Further, the “FRAP normalized fluorescence intensity, ave” value by setting is: (time 19 s) 0.1464; (time 22 s) 0.1453; (time 25 s) 0.1447; (time 28 s) 0.1966; (time 31 s) 0.1813; (time 41 s) 0.3012. Further, the “FRAP normalized fluorescence intensity, ave” value amounted to 0.3242 (time 51 s) and 0.314 (time 61 s).
